These are yes or no findings as the source states them, for the method shown. A result given as binding can be weak or reduced; the word gives no strength.
What was measured:
Settings in all cases: remark: other sources report otherwise
[1] = target: b1b2 domains (273-586) of neuropilin-1, O14786; assay: ELISA, plate-bound b1b2 domain
[2] = target: b1b2 domains (275-595) of neuropilin-2, O60462; assay: ELISA, plate-bound b1b2 domain
[3] = target: b1b2 domains (273-586) of neuropilin-1, O14786; assay: ELISA: target coated on the plate, biotinylated peptide at 100 nM and 1 uM, anti-biotin-AP and pNPP, absorbance at 405 nm [A]
[4] = target: b1b2 domains (275-595) of neuropilin-2, O60462; assay: as above

binding [1]: binds
binding [2]: binds
binding [3]: binds
binding [4]: binds
Binder: HTPGNSNKWKHLQENKKGRPRR (here or on the partner: biotin (position not given)) [A22p peptide]

Reference: patent publication US20160130315A1
